{"source": "PubChem BioAssay AID1159584 | Peter MacCallum Cancer Centre, 2016", "assay": "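Genes that CDH1-null MCF10A cells selectively depend on to survive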 (primary screen)", "cell system": "human MCF10A breast epithelial cells, parental and CDH1-null", "reagent": "siRNA against human genes", "measurement": "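Cell viability by CellTiter-Glo ATP luminescence, each line scaled to the mean of mock wells across plates, then CDH1-null over parental ratio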", "direction": "CDH1-null / parental viability ratio: higher = CDH1-null cells survive relatively better than parental", "note": "Shown is an unselected part of about 18,000 reagents. Further read-outs or replicates are left out here. Not given: the amount of reagent, the time to read-out."}
{"target": "GBA3", "CDH1-null / parental viability ratio": 1.15}
{"target": "CFH", "CDH1-null / parental viability ratio": 1}
{"target": "C22orf39", "CDH1-null / parental viability ratio": 0.87}
{"target": "LYPD6B", "CDH1-null / parental viability ratio": 0.76}
{"target": "KLHL32", "CDH1-null / parental viability ratio": 0.71}
{"target": "COL6A3", "CDH1-null / parental viability ratio": 0.89}
{"target": "ZMAT4", "CDH1-null / parental viability ratio": 1.01}
{"target": "PAX4", "CDH1-null / parental viability ratio": 1.07}
{"target": "SLIRP", "CDH1-null / parental viability ratio": 0.86}
{"target": "MPIG6B", "CDH1-null / parental viability ratio": 0.94}
{"target": "PYHIN1", "CDH1-null / parental viability ratio": 0.67}
{"target": "ADM2", "CDH1-null / parental viability ratio": 1.07}
{"target": "CRTAC1", "CDH1-null / parental viability ratio": 1.32}
{"target": "ANK2", "CDH1-null / parental viability ratio": 1.22}
{"target": "MAPK9", "CDH1-null / parental viability ratio": 0.89}
{"target": "OR51E1", "CDH1-null / parental viability ratio": 1.15}
{"target": "CHMP7", "CDH1-null / parental viability ratio": 0.92}
{"target": "CCDC181", "CDH1-null / parental viability ratio": 1.06}
{"target": "BCCIP", "CDH1-null / parental viability ratio": 1}
{"target": "ODF1", "CDH1-null / parental viability ratio": 0.88}
{"target": "SLC39A6", "CDH1-null / parental viability ratio": 1.05}
{"target": "ABRA", "CDH1-null / parental viability ratio": 0.91}
{"target": "COL22A1", "CDH1-null / parental viability ratio": 0.91}
{"target": "EPAS1", "CDH1-null / parental viability ratio": 1.12}
{"target": "IGSF11", "CDH1-null / parental viability ratio": 0.71}
{"target": "WFDC12", "CDH1-null / parental viability ratio": 1.26}
{"target": "MPHOSPH8", "CDH1-null / parental viability ratio": 1}
{"target": "TP53INP1", "CDH1-null / parental viability ratio": 1.25}
{"target": "MED14", "CDH1-null / parental viability ratio": 1.18}
{"target": "SGF29", "CDH1-null / parental viability ratio": 0.97}
{"target": "MEIS3", "CDH1-null / parental viability ratio": 0.9}
{"target": "SCNN1B", "CDH1-null / parental viability ratio": 1.57}
{"target": "CHRM3", "CDH1-null / parental viability ratio": 1.49}
{"target": "MPZL2", "CDH1-null / parental viability ratio": 0.93}
{"target": "PLIN4", "CDH1-null / parental viability ratio": 0.98}
